{"sequences": {"note": "Sequences of proteins named here, by UniProt entry; tags and fusion partners are left off. Residues count along the entry.", "UniProt Q14BI2, 19-872": "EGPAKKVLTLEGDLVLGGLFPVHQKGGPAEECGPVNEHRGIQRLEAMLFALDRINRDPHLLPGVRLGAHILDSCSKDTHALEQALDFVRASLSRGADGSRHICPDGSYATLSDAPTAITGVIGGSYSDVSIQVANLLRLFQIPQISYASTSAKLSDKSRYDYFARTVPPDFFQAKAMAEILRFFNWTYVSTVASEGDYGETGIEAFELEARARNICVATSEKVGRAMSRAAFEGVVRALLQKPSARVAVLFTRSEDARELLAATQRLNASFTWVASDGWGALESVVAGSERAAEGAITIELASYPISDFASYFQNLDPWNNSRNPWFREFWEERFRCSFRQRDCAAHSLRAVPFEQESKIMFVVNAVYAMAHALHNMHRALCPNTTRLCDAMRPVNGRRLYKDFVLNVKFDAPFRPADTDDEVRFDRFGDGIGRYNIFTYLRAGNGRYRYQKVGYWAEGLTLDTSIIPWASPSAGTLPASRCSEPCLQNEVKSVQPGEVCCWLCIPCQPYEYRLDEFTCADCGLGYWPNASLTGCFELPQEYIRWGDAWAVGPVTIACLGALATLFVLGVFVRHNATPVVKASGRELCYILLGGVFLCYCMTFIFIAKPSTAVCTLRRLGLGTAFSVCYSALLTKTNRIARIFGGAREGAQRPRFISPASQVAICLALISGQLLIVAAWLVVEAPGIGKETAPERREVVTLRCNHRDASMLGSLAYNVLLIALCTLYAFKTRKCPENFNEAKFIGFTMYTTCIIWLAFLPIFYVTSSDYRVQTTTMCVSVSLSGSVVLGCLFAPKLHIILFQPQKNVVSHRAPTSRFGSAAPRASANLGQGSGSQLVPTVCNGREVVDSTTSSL", "UniProt Q14BI2, 19-872 A548F": "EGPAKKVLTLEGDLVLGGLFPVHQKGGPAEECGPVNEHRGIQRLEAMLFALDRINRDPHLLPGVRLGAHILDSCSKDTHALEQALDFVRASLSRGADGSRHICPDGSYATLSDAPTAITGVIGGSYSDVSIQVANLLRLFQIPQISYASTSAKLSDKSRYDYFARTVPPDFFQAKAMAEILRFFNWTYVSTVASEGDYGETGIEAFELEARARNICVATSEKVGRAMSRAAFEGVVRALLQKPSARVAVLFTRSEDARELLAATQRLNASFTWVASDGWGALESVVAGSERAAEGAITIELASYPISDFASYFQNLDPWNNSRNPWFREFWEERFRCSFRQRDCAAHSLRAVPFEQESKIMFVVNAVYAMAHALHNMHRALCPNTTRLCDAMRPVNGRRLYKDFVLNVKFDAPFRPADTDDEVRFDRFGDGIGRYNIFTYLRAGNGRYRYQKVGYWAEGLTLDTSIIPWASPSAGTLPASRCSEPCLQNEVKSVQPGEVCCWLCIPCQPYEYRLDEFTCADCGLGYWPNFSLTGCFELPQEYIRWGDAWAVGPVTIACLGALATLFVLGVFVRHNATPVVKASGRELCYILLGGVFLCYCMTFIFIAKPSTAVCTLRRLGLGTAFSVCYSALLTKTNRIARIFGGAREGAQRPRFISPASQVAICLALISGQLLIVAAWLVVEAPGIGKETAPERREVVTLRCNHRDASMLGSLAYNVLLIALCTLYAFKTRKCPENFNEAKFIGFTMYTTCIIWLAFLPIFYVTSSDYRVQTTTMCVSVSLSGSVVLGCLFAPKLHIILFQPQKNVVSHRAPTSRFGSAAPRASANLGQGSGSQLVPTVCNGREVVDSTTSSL"}, "source": "paper PMC9299836", "about": "(eLife, 2022)", "key": {"mGluR2 [1]": {"biological_target": "mGluR2 (Mus musculus, UniProt Q14BI2)", "assay": "Live-cell FRET, SNAP-m2 (VFT domain) inter-subunit sensor in HEK293T cells;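 also: apparent FRET efficiency from whole-membrane ROIs of single cells, corrected for donor bleed-through and background, ΔFRET as treatment minus pretreatment signal, recorded at room temperature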", "settings": "Glutamate + 10μM BINA, individual cells, normalized to 1mM glutamate"}, "mGluR2 [2]": {"biological_target": "mGluR2 (Mus musculus, UniProt Q14BI2, A548F)", "assay": "smFRET of azi-CRD: cross-correlation of donor and acceptor intensities (CRD dynamics) and HMM transition density plots;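 also: single detergent-solubilized receptors captured on antibody-coated flow cells via C-terminal FLAG-tag, imaged by smFRET, donor and acceptor intensity traces from three independent biological replicates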", "settings": "1000μM Glutamate + 10μM BINA, N=3"}}, "note": "“And” between values parts separate entries of the source, which are not always exact repeats. Equal values may be shown once. The source gives many values for each of these; only a part stands here."}
{"smiles": "Cc1c(OCc2cccc(-c3ccc(C(=O)O)cc3)c2)cc2c(c1C)C(=O)C(C1CCCC1)C2", "note": "(centres unmarked) [BINA]", "values": [{"measurement": "SNAP-m2 FRET response (PAM DRC)", "setting": "mGluR2 [1]; log[Glutamate] (M) -3", "value": -1.024}, {"measurement": "SNAP-m2 FRET response (PAM DRC)", "setting": "mGluR2 [1]; log[Glutamate] (M) -4.1549", "value": "-1.078 and -1.045 and -0.9953 and -1.038 and -1.042 and -1.012 and -0.992 and -1.05 and -1.084 and -1.089 and -1.061 and -1.027 and -1.077 and -1.051 and -1.0704 and -1.116 and -1.006 and -1.041 and -0.987 and -1.001 and -1.033 and -1.036 and -1.07"}, {"measurement": "SNAP-m2 FRET response (PAM DRC)", "setting": "mGluR2 [1]; log[Glutamate] (M) -4.52288", "value": "-1.117 and -1.075 and -1.049 and -1.05 and -1.097 and -1.081 and -0.9919 and -1.1139 and -1.102 and -1.138 and -1.162 and -1.165 and -1.095 and -1.073 and -0.9523 and -1.128 and -0.9709 and -1.015 and -0.9848 and -1.02 and -1.041 and -1.012 and -1.072"}, {"measurement": "SNAP-m2 FRET response (PAM DRC)", "setting": "mGluR2 [1]; log[Glutamate] (M) -5", "value": "-0.9989 and -1.091 (2×) and -1.064 and -1.113 and -1.138 (2×) and -0.9661 and -1.069 and -1.15 and -1.145 and -0.9381 and -1.065 and -1.143 and -1.025 and -1.187 and -0.6002 and -0.8738 and -0.9165 and -0.9455 and -1.092 and -1.016 and -1.032"}, {"measurement": "SNAP-m2 FRET response (PAM DRC)", "setting": "mGluR2 [1]; log[Glutamate] (M) -5.39794", "value": "-0.7022 and -1.046 and -0.9826 and -1.017 and -1.031 and -1.079 and -0.896 and -0.941 and -1.074 and -1.129 and -1.11 and -0.5929 and -1.041 and -1.088 and -0.9891 and -1.102 and -0.3001 and -0.5862 and -0.6772 and -0.7483 and -1.068 and -0.8917 and -1.048"}, {"measurement": "SNAP-m2 FRET response (PAM DRC)", "setting": "mGluR2 [1]; log[Glutamate] (M) -5.82391", "value": "-0.8762 and -0.701 and -0.8445"}, {"measurement": "Cross Correlation, Mean", "setting": "mGluR2 [2]; Time 0 s", "value": -0.235}, {"measurement": "Cross Correlation, Mean", "setting": "mGluR2 [2]; Time 0.05 s", "value": -0.1261}, {"measurement": "Cross Correlation, Mean", "setting": "mGluR2 [2]; Time 0.1 s", "value": -0.1028}, {"measurement": "Cross Correlation, Mean", "setting": "mGluR2 [2]; Time 0.15 s", "value": -0.08554}, {"measurement": "Cross Correlation, Mean", "setting": "mGluR2 [2]; Time 2.2 s", "value": -0.02009}, {"measurement": "Cross Correlation, Mean", "setting": "mGluR2 [2]; Time 2.25 s", "value": -0.01896}, {"measurement": "Cross Correlation, Mean", "setting": "mGluR2 [2]; Time 2.3 s", "value": -0.01579}, {"measurement": "Cross Correlation, Mean", "setting": "mGluR2 [2]; Time 2.35 s", "value": -0.01431}, {"measurement": "Cross Correlation, Mean", "setting": "mGluR2 [2]; Time 2.4 s", "value": -0.01205}, {"measurement": "Cross Correlation, Mean", "setting": "mGluR2 [2]; Time 2.45 s", "value": -0.01717}, {"measurement": "Cross Correlation, Mean", "setting": "mGluR2 [2]; Time 2.5 s", "value": -0.01048}, {"measurement": "Cross Correlation, Mean", "setting": "mGluR2 [2]; Time 2.55 s", "value": -0.02038}, {"measurement": "Cross Correlation, Mean", "setting": "mGluR2 [2]; Time 2.6 s", "value": -0.0117}, {"measurement": "Cross Correlation, Mean", "setting": "mGluR2 [2]; Time 2.65 s", "value": -0.01182}, {"measurement": "Cross Correlation, Mean", "setting": "mGluR2 [2]; Time 2.7 s", "value": -0.01456}, {"measurement": "Cross Correlation, Mean", "setting": "mGluR2 [2]; Time 2.75 s", "value": -0.01307}, {"measurement": "Cross Correlation, Mean", "setting": "mGluR2 [2]; Time 2.8 s", "value": -0.01003}, {"measurement": "Cross Correlation, Mean", "setting": "mGluR2 [2]; Time 2.85 s", "value": -0.01096}, {"measurement": "Cross Correlation, Mean", "setting": "mGluR2 [2]; Time 2.9 s", "value": -0.01497}, {"measurement": "Cross Correlation, Mean", "setting": "mGluR2 [2]; Time 2.95 s", "value": -0.01462}]}
